# From PubChem BioAssay AID652054 (National Center for Advancing Translational Sciences (NCATS), 2013)
# Sequences of proteins named here, by UniProt entry; tags and fusion partners are left off.
# UniProt P35462, whole entry, looked up: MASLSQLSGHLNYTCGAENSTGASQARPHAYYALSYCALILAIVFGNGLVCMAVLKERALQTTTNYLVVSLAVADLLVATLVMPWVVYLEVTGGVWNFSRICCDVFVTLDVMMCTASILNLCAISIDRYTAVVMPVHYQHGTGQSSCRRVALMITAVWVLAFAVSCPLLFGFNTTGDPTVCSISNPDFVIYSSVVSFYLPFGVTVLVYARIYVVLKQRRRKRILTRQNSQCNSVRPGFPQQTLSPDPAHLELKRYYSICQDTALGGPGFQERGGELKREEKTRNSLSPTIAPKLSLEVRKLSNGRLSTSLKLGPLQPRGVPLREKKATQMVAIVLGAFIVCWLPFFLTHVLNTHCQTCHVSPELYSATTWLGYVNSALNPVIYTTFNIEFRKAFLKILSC
# Hit rate of the full screen: of about 360,000 compounds, about 9,100 (2.5%) were called active. This list was built around the results that the source calls inconclusive (neither active nor inactive); the mix of calls is not that of the screen. No stated cut-off is given here; in the data, active means max response below about -50%; inconclusive means no clear call, values can overlap the other calls; inactive means above that.
# Molecular target: D(3) dopamine receptor (Homo sapiens) (UniProt P35462)
# Experiment: qHTS of D3 Dopamine Receptor Antagonist: qHTS
# Settings: D3R cells, DiscoveRx beta-arrestin luminescence, antagonist mode; hits give low values
# Method in brief: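 Cells plated overnight at 1500 cells/well, then exposed to library compounds with dopamine controls for 90 minutes at 37 degrees C. DiscoveRx reagent added for 30–60 minutes at room temperature; luminescence read, quantitative HTS format.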
# On the % scale 0 is the no-effect control and ±100 the full control effect.
row,SMILES,"max response, negative = inhibition"
1,O=S(=O)(CC(CN1CCCC1)N1CCCC1)c1ccc2ccccc2c1 (stereo unspecified),inconclusive: -45.4%
2,O=C(COC(=O)c1ccccc1SCC(=O)N1CCCC1)NCc1ccc(F)cc1,inconclusive: -39.6%
3,O=C1c2ccccc2NC(c2ccc(O)cc2)N1c1ccccc1 (stereo unspecified),inactive: -3.75%
4,COc1ccc(/C=C/C(=O)NC(=S)Nc2ccc(S(=O)(=O)Nc3nccnc3OC)cc2)cc1,active: -62.1%
5,CN1c2ccccc2C(O)=C(C(=S)Nc2ccccc2)S1(=O)=O,active: -85.5%
6,Oc1ccc2ccccc2c1CNc1ccc2ccccc2c1,inconclusive: -34.5%
7,Cc1ccc(Oc2nnc(-c3cccs3)c3ccccc23)cc1,inactive: -14.7%
8,CC(=O)N1[C@H](C)C=C[C@]1(Cc1ccccc1)C(=O)O,inactive: 8.08%
9,Cc1ccc2c(c1C)-c1c(ccc(C)c1C)C(=O)C2=O,inconclusive: -36.5%
10,Cc1ccc2c(c1)N(C(=O)c1ccco1)C(C)(C)c1ssc(=S)c1-2,inconclusive: -38.6%
11,CC(C)Cc1ccc(C(C)CC2=CCC(CN(C)C)C2=O)cc1 (stereo unspecified),inconclusive: -36.9%
12,N#Cc1c(/N=C/c2ccccc2)oc(-c2ccccc2)c1-c1ccccc1,inactive: -1.76%
13,CC(C)c1cc(C(=O)N/N=C/c2ccoc2)c(O)c(C(C)C)c1,active: -60.7%
14,CCCNS(=O)(=O)c1cc(Br)cc2c1N(C(=O)CC)CC2,inconclusive: -42.8%
15,S=c1[nH]nc(-c2ccc(Cl)cc2)n1CC1CCCO1 (stereo unspecified),active: -72%
16,Cc1sc(-c2ccccn2)nc1OC(=O)c1ccc(F)cc1F,inactive: 106%
17,COc1cc(OC)cc(-c2nc3cc(C)ccc3o2)c1,inactive: 37.1%
18,CCOCCCn1c(=NC(=O)c2cccs2)c(C#N)cc2c(=O)n3ccccc3nc21,inactive: -19.1%
19,O=C(c1cccs1)N1CCC(Cc2ccccc2)CC1,inconclusive: -36.1%

row,SMILES,"max response, negative = inhibition"
1,COc1ccc(Cc2c(-c3ccc(C)cc3)nc3c4ccccc4ccn23)c(C)c1,inconclusive: -44.9%
2,COCCNS(=O)(=O)c1ccc2c(c1)n(C)c(=O)n2C,inconclusive: -42%
3,FC(F)(F)c1cnc(Oc2cccc3ccccc23)c(Cl)c1,inactive: -2.84%
4,CCCCNCc1cccn1-c1ccccc1,inconclusive: -40.1%
5,O=C(NNC(=S)NCc1ccco1)c1ccc(Cl)s1,inconclusive: -37.9%
6,C[C@@]12C(=O)Nc3ccccc3C(=O)N1[C@H]1c3cc(Cl)ccc3OC[C@@H]1[C@@H]2c1ccccc1,inconclusive: -31.5%
7,CCOc1c(Br)cc(CNC2CCCCCCC2)cc1OC,inconclusive: -33%
8,Cc1cccc(NC(=O)NCCN2CCN(c3ccccc3)CC2)c1C,active: -70.7%
9,CC1=C/C(=C/N(C)c2ccccc2)C(=O)S1,inconclusive: -31.9%
10,O=C(NCCOc1ccc(F)cc1)C1CCC(=O)N(CCCN2CCOCC2)C1 (stereo unspecified),inactive: 2.29%
11,COC(=O)c1c(C(=O)OC)c(-c2ccc(Br)cc2)n2c1CS(=O)C2 (stereo unspecified),inactive: -17.7%
12,O=C1C2C(C(=O)N1CCN1CCN(Cc3ccc([N+](=O)[O-])cc3)CC1)[C@H]1C=C[C@@H]2C1 (stereo partly specified),inconclusive: -45.2%
13,CNC(=O)c1c(NC(NC(=O)c2ccco2)C(=O)c2ccc(Cl)cc2)sc2c1CCCC2 (stereo unspecified),inconclusive: -43.4%
14,O=C(NCC1CCCO1)c1ccccc1OCc1ccc(F)cc1 (stereo unspecified),active: -65.9%
15,Cc1ccc(Nc2nc3nonc3[nH]c2=O)cc1Cl,inconclusive: -36.4%
16,O=[N+]([O-])c1cc(CN2CCN(c3ccccc3)CC2)c(O)c2ncccc12,active: -109%
17,COCCCNC(=O)Nc1ccc(Br)cc1Cl,inconclusive: -46.1%
18,Cc1ccc(C(=O)NCCc2nc3ccccc3[nH]2)cc1[N+](=O)[O-],inconclusive: -44.7%
19,COc1ccccc1NC(=O)NCC(c1ccco1)N1CCCCC1 (stereo unspecified),inconclusive: -38.9%

# No new results follow: three of the compounds above.
row,SMILES,"max response, negative = inhibition"
11,COC(=O)c1c(C(=O)OC)c(-c2ccc(Br)cc2)n2c1CS(=O)C2 (stereo unspecified),inactive: -17.7%
12,O=C1C2C(C(=O)N1CCN1CCN(Cc3ccc([N+](=O)[O-])cc3)CC1)[C@H]1C=C[C@@H]2C1 (stereo partly specified),inconclusive: -45.2%
13,CNC(=O)c1c(NC(NC(=O)c2ccco2)C(=O)c2ccc(Cl)cc2)sc2c1CCCC2 (stereo unspecified),inconclusive: -43.4%

# (list continues)

row,SMILES,"max response, negative = inhibition"
1,CCN1C(=O)[C@H]2[C@@H](c3ccc(SC4CCCCC4)cc3)N3CCCC[C@@]3(C(=O)OC)[C@H]2C1=O,inactive: 9.17%
2,Cc1cc(C)c(C(=O)CC2(O)C(=O)Nc3ccccc32)cc1C (stereo unspecified),inconclusive: -32.8%
3,Cc1ccccc1S(=O)(=O)N1C[C@H]2[C@H]3C(=O)N(c4ccccc4)C(=O)[C@H]3CC(=O)[C@H]2[C@@H]1c1ccc(Cl)cc1,inconclusive: -34.9%
4,O=C(Nc1ccccc1)N1CCC(O)(c2cccc(C(F)(F)F)c2)CC1,inconclusive: -30.5%
5,OC1(c2cccnc2)CCN(Cc2nnnn2C2CCCCC2)CC1,inconclusive: -32.5%
6,CCN1C[C@@H]2[C@@H]3C(=O)N(Cc4ccccc4)C(=O)[C@@H]3[C@](C)(C1=O)N2C(=O)c1ccc(Cl)cc1,inactive: 7%
7,Cc1cc(-c2nc3ccccc3o2)c2ccccc2n1,inconclusive: -38.8%
8,CC(=O)c1ccc(S(=O)(=O)NC2CCSc3ccccc32)cc1 (stereo unspecified),inconclusive: -32.6%
9,O=C1C=C(c2ccc(CO)cc2)C[C@@H](c2ccc(F)cc2)C1,inconclusive: -31.9%
10,Clc1cccc(N2CCN(Cc3nnc(-c4ccccc4)o3)CC2)c1,inconclusive: -31.6%
11,CCOC(=O)C1=C(N)n2c(s/c(=C/c3ccco3)c2=O)=C(C(=O)OC)C1c1ccco1 (stereo unspecified),inactive: -30%
12,CCOC(=O)c1cnc2ccc(C)cc2c1Nc1ccc(N2CCOCC2)cc1,active: -59.3%
13,CC1=CC(=O)C(Sc2ccc(C)cc2)=CC1=O,active: -91.7%
14,CCOC(=O)N(C)c1c(CC)nc2c(OCCC3CCCCC3)cccn12,inconclusive: -44.8%
15,CCCCN(C(=O)c1cccc(S(=O)(=O)N(CC)c2ccccc2)c1)c1c(N)n(CC(C)C)c(=O)[nH]c1=O,inconclusive: -35.3%
16,CC1CN(c2ccc([N+](=O)[O-])c(NCCOc3ccccc3)c2)CCN1 (stereo unspecified),inconclusive: -39.7%
17,CCCCOCCCNC(=O)N[C@H](C(=O)OC)C(C)C,inconclusive: -44%
18,O=c1c(-c2c(O)cc(O)c3c(=O)cc(-c4ccc(O)cc4)oc23)c(-c2ccc(O)cc2)oc2cc(O)cc(O)c12,inconclusive: -48.8%
